Some compounds share one wording; it may come from a single statement.
Columns and labels:
[1] = Coating deposition from purified polyphenols, silver metallization; details: purified compounds, polysulfone (FIG. 3)
[2] = Coating ability on TiO2 at pH 3-9, XPS Ti2p signal attenuation; details: for capable of forming coatings between pH 3 and 9: TiO2, XPS, at least 20% signal reduction; for Optimal Coating pH: pH with the greatest signal attenuation in the XPS trials
[3] = Effect of salt on coating formation on SiO2, XPS Si2p signal; details: 48 h
[4] = Coating ability on a wide range of substrate materials (XPS, ellipsometry, silver deposition); details: 600 mM NaCl; for Coating Formed? SiO2: substrate SiO2 (silica); for Coating Formed? SiO2 / Coating Formed? Au / Coating Formed? Nylon / Coating Formed? PEEK / Coating Formed? PPS / Coating Formed? PC / Coating Formed? PS / Coating Formed? PTFE / Coating Formed? SS: each precursor at its own pH; for Coating Formed? TiO2: substrate TiO2, each precursor at its own pH (TA 7, PG 7, catechol 8, catechin 9, HHQ 6, EGCG 7); for Coating Formed? Au: substrate gold; for Coating Formed? Nylon: substrate nylon 6-12; for Coating Formed? PEEK: substrate poly(ether ether ketone); for Coating Formed? PPS: substrate poly(p-phenylene sulfide); for Coating Formed? PC: substrate polycarbonate; for Coating Formed? PS: substrate polystyrene; for Coating Formed? PTFE: substrate polytetrafluoroethylene; for Coating Formed? SS: substrate stainless steel
[5] = Effect of salt on coating formation on TiO2, XPS Ti2p signal; details: for able to coat both TiO2 and SiO2 with at least one of the experimental conditions: TiO2 and SiO2, salts of Tables 8-9; for Ti2p Signal Strength (%): 48 h
[6] = Coating thickness on TiO2 by ellipsometry
[7] = pH 6, Ca2+ = 600 mM CaCl2, 1 mg/mL
[8] = pH 6, Cu2+ = 100 μM CuCl2 + 600 mM NaCl, 1 mg/mL
[9] = pH 6, Mg2+ = 600 mM MgCl2, 1 mg/mL
[10] = pH 6, Na+ = 600 mM NaCl, 1 mg/mL
[11] = pH 6, Zn2+ = 100 μM ZnCl2 + 600 mM NaCl, 1 mg/mL
[12] = pH 3, precursor 1 mg/mL, 24 h, 600 mM NaCl
[13] = pH 4, precursor 1 mg/mL, 24 h, 600 mM NaCl
[14] = pH 5, precursor 1 mg/mL, 24 h, 600 mM NaCl
[15] = pH 6, precursor 1 mg/mL, 24 h, 600 mM NaCl
[16] = pH 7, precursor 1 mg/mL, 24 h, 600 mM NaCl
[17] = pH 8, precursor 1 mg/mL, 24 h, 600 mM NaCl
[18] = pH 9, precursor 1 mg/mL, 24 h, 600 mM NaCl
[19] = pH 7, Ca2+ = 600 mM CaCl2, 1 mg/mL
[20] = pH 7, Mg2+ = 600 mM MgCl2, 1 mg/mL
[21] = pH 7, Na+ = 600 mM NaCl, 1 mg/mL
[22] = pH 7, Zn2+ = 100 μM ZnCl2 + 600 mM NaCl, 1 mg/mL
[23] = pH 7, Cu2+ = 100 μM CuCl2 + 600 mM NaCl, 1 mg/mL

Compound | capable of forming coatings between pH 3 and 9 [2] | Coating Formed? SiO2 [4] | Coating Formed? TiO2 [4] | Coating Formed? Au [4] | Coating Formed? Nylon [4] | Coating Formed? PEEK [4] | Coating Formed? PPS [4] | Coating Formed? PC [4] | Coating Formed? PS [4] | Coating Formed? PTFE [4] | Coating Formed? SS [4] | able to coat both TiO2 and SiO2 with at least one of the experimental conditions [5] | Ti2p Signal Strength (%) [2, 12] [%] | Ti2p Signal Strength (%) [2, 13] [%] | Ti2p Signal Strength (%) [2, 14] [%] | Ti2p Signal Strength (%) [2, 15] [%] | Ti2p Signal Strength (%) [2, 16] [%] | Ti2p Signal Strength (%) [2, 17] [%] | Ti2p Signal Strength (%) [2, 18] [%] | Optimal Coating pH [2] | further results
O=C(O[C@@H]1Cc2c(O)cc(O)cc2O[C@@H]1c1ccc(O)c(O)c1)c1cc(O)c(O)c(O)c1 [ECG, epicatechin gallate] |  |  |  |  |  |  |  |  |  |  |  |  |  |  |  |  |  |  |  |  | coating deposition, qualitative observation after silver metallization [1]: coatings are deposited as expected
Oc1cc(O)c2c(c1)O[C@H](c1cc(O)c(O)c(O)c1)[C@H](O)C2 [EGC, epigallocatechin] | capable of forming coatings |  |  |  |  |  |  |  |  |  |  |  |  |  |  |  |  |  |  |  | coating deposition, qualitative observation after silver metallization [1]: coatings are deposited as expected; Ti2p Signal Strength (%) ([2]; pH 7, precursor 0.1 mg/mL): 90.2%; Ti2p Signal Strength (%) ([2]; pH 8, precursor 0.1 mg/mL): 84.1%; Ti2p Signal Strength (%) ([2]; pH 9, precursor 0.1 mg/mL): 41.2%
Oc1ccc(O)c(O)c1 [HHQ, hydroxyhydroquinone] | capable of forming coatings | No | Yes | Yes | Yes | Yes | Yes | Yes | Yes | Yes | Yes | able to coat both TiO2 and SiO2 | 18.6 | 32.9 | 22.0 | 1.1 | 51.6 | 88.2 | 76.8 | 6.0 | Si2p Signal Strength (%) [3, 7]: 1.5%; Si2p Signal Strength (%) [3, 8]: 93.5%; Si2p Signal Strength (%) [3, 9]: 80.5%; Si2p Signal Strength (%) [3, 10]: 94.9%; Si2p Signal Strength (%) [3, 11]: 104.8%; Ti2p Signal Strength (%) [5, 7]: 0.0%; Ti2p Signal Strength (%) [5, 8]: 14.1%; Ti2p Signal Strength (%) [5, 9]: 0.0%; Ti2p Signal Strength (%) [5, 10]: 0.0%; Ti2p Signal Strength (%) [5, 11]: 5.0%; Coating Thickness (nm) ([6]; TiO2, 48 h, pH 6): 48.8 ± 10.5 nm
Oc1cccc(O)c1O [PG, 1,2,3-trihydroxybenzene] | capable of forming coatings | No | Yes | Yes | Yes | Yes | Yes | Yes | Yes | Yes | Yes | able to coat both TiO2 and SiO2 | 100.9 | 96.6 | 87.6 | 35.3 | 11.0 | 58.0 | 86.9 | 7.0 | Si2p Signal Strength (%) [3, 19]: 2.2%; Si2p Signal Strength (%) [3, 20]: 0.0%; Si2p Signal Strength (%) [3, 21]: 100.1%; Si2p Signal Strength (%) [3, 22]: 108.7%; Ti2p Signal Strength (%) [5, 19]: 0.0%; Ti2p Signal Strength (%) [5, 23]: 0.0%; Ti2p Signal Strength (%) [5, 20]: 0.0%; Ti2p Signal Strength (%) [5, 21]: 12.6%; Ti2p Signal Strength (%) [5, 22]: 3.9%; Coating Thickness (nm) ([6]; TiO2, 24 h, pH 7): 19.0 ± 1.9 nm
O=C(OC[C@H]1O[C@@H](OC(=O)c2cc(O)c(O)c(OC(=O)c3cc(O)c(O)c(O)c3)c2)[C@H](OC(=O)c2cc(O)c(O)c(OC(=O)c3cc(O)c(O)c(O)c3)c2)[C@@H](OC(=O)c2cc(O)c(O)c(OC(=O)c3cc(O)c(O)c(O)c3)c2)[C@@H]1OC(=O)c1cc(O)c(O)c(OC(=O)c2cc(O)c(O)c(O)c2)c1)c1cc(O)c(O)c(OC(=O)c2cc(O)c(O)c(O)c2)c1 [Tannic acid, tannic acid] | capable of forming coatings | No | Yes | Yes | Yes | Yes | Yes | Yes | Yes | Yes | Yes | able to coat both TiO2 and SiO2 | 65.2 | 56.8 | 62.9 | 0.0 | 0.0 | 62.9 | 72.7 | 7.0 | Si2p Signal Strength (%) [3, 7]: 102.7%; Si2p Signal Strength (%) [3, 9]: 83.8%; Si2p Signal Strength (%) [3, 19]: 105.4%; Si2p Signal Strength (%) [3, 23]: 103.0%; Si2p Signal Strength (%) [3, 20]: 50.3%; Si2p Signal Strength (%) [3, 21]: 111.9%; Si2p Signal Strength (%) [3, 22]: 90.6%; Ti2p Signal Strength (%) [5, 7]: 0.0%; Ti2p Signal Strength (%) [5, 9]: 0.0%; Ti2p Signal Strength (%) [5, 19]: 11.4%; Ti2p Signal Strength (%) [5, 23]: 0.0%; Ti2p Signal Strength (%) [5, 20]: 88.9%; Ti2p Signal Strength (%) [5, 21]: 0.0%; Ti2p Signal Strength (%) [5, 22]: 0.0%; Coating Thickness (nm) ([6]; TiO2, 24 h, pH 6): 5.8 ± 0.9 nm; Coating Thickness (nm) ([6]; TiO2, 24 h, pH 7): 109.3 ± 7.1 nm
epigallocatechin-3-gallate [EGCG] | capable of forming coatings | No | Yes | Yes | Yes | Yes | Yes | Yes | Yes | Yes | Yes | able to coat both TiO2 and SiO2 | 70.1 | 71.5 | 71.8 | 67.7 | 0.3 | 45.5 | 83.8 | 7.0 | Si2p Signal Strength (%) [3, 19]: 99.8%; Si2p Signal Strength (%) [3, 23]: 107.1%; Si2p Signal Strength (%) [3, 20]: 20.6%; Si2p Signal Strength (%) [3, 21]: 108.5%; Si2p Signal Strength (%) [3, 22]: 104.1%; coating deposition, qualitative observation after silver metallization [1]: coatings are deposited as expected; Ti2p Signal Strength (%) [5, 19]: 0.0%; Ti2p Signal Strength (%) [5, 23]: 0.0%; Ti2p Signal Strength (%) [5, 20]: 0.0%; Ti2p Signal Strength (%) [5, 21]: 0.0%; Ti2p Signal Strength (%) [5, 22]: 13.0%; Coating Thickness (nm) ([6]; TiO2, 48 h, pH 7): 34.3 ± 7.2 nm; Ti2p Signal Strength (%) ([2]; pH 3, precursor 0.1 mg/mL): 81.5%; Ti2p Signal Strength (%) ([2]; pH 4, precursor 0.1 mg/mL): 87.4%; Ti2p Signal Strength (%) ([2]; pH 5, precursor 0.1 mg/mL): 82.5%; Ti2p Signal Strength (%) ([2]; pH 6, precursor 0.1 mg/mL): 52.4%; Ti2p Signal Strength (%) ([2]; pH 7, precursor 0.1 mg/mL): 8.7%; Ti2p Signal Strength (%) ([2]; pH 8, precursor 0.1 mg/mL): 43.8%; Ti2p Signal Strength (%) ([2]; pH 9, precursor 0.1 mg/mL): 91.8%

Reference: patent US10265275B2, “Phenolic coatings and methods of making and using same” (Northwestern University, priority 2013, dated 2019)
